According to patent publication US20260191907A1:
No constants are given. Whether binding was seen depends on the method and setting. Some entries that bind do so weakly or less than the wild type. Values belong to the binder of their own block, whether it stands above or below them.

What was measured:
[1] = target: FGFR4 expressed on the surface of RMS cells (Rh4-FR4 wt, Rh30) (human) (UniProt P22455); assay: flow cytometry, recombinant nanobody on Rh4-FR4 wt cells
[2] = target: T1, Recombinant FGFR4 (G&P Biosciences) (human) (UniProt P22455); assay: SPR, recombinant FGFR4 immobilised, nanobody as analyte
T1 sequence: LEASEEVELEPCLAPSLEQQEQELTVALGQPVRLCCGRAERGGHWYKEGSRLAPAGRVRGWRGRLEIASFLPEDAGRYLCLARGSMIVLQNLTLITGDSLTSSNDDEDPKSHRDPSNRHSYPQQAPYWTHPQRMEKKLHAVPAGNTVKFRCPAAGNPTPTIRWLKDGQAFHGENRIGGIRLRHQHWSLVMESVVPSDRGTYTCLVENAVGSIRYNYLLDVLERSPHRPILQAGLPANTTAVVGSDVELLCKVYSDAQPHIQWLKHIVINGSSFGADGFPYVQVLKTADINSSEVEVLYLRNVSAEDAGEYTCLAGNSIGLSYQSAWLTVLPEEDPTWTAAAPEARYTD

[3] = target: FGFR4 expressed on the surface of RMS cells (Rh4-FR4 wt, Rh30) (human) (UniProt P22455); assay: flow cytometry, phage clone displaying the nanobody on Rh4-FR4 wt cells, anti-M13 detection
[4] = target: FGFR4 expressed on the surface of RMS cells (Rh4-FR4 wt, Rh30) (human) (UniProt P22455); assay: flow cytometry on Rh4-FR4 wt cells
[5] = target: FGFR4 expressed on the surface of RMS cells (Rh4-FR4 wt, Rh30) (human) (UniProt P22455); assay: flow cytometry on RMS cells
[6] = target: FGFR4 expressed on the surface of RMS cells (Rh4-FR4 wt, Rh30) (human) (UniProt P22455); assay: flow cytometry, recombinant nanobody at 30 µg/ml on Rh4-FR4 wt cells, anti-6xHis-FITC detection
[7] = target: FGFR4 expressed on the surface of RMS cells (Rh4-FR4 wt, Rh30) (human) (UniProt P22455); assay: flow cytometry and confocal microscopy on RMS cells
[8] = target: FGFR4 expressed on the surface of RMS cells (Rh4-FR4 wt, Rh30) (human) (UniProt P22455); assay: flow cytometry of DiR fluorescence, liposomes at 0.5 mM lipid on Rh4-FR4 wt cells, 2 h at 37 °C

- binding [1]: binds
- binding [2]: binds
- binding [3]: binds
- binding [4]: binds
- binding [5]: binds
- binding [6]: binds
B1: A8 nanobody (anti-FGFR4 sdAb, NaLi-H1 library) (VHH, not shown: small tags and cut ends)
VHH: EVQLQASGGGFVQPGGSLRLSCAASGRTYSRDTMGWFRQAPGKEREFVSAISSRHSHTTYYADSVKGRFTISRDNSKNTVYLQMNSLRAEDTATYYCAEWDVFDMHYALPPMWYWGQGTQVTVSS

- binding [7]: binds
- binding [4]: binds
- binding [8]: binds
B2: L-A8, VCR-loaded fluorescent liposomes decorated with nanobody A8 (protein, not shown: small tags and cut ends)
VHH: B1 VHH
modifications: C-terminal cysteine coupled to DSPE-PEG-maleimide on the liposomal surface
